In publication PMC4839565, “Evolution of Telomeres in Schizosaccharomyces pombe and Its Possible Relationship to the Diversification of Telomere Binding Proteins”:

Columns and labels:
[1] = target: T1, Taz1p (6HN-Taz1) (Schizosaccharomyces pombe) (UniProt P79005); test: EMSA; details: 0.1 mM DTT, EMSA: 15 nM DNA, 0.05-4.5 uM protein, room temperature 10 min, recombinant protein, residues 2-663, protein details: N-terminal 6HN
T1 sequence (looked up): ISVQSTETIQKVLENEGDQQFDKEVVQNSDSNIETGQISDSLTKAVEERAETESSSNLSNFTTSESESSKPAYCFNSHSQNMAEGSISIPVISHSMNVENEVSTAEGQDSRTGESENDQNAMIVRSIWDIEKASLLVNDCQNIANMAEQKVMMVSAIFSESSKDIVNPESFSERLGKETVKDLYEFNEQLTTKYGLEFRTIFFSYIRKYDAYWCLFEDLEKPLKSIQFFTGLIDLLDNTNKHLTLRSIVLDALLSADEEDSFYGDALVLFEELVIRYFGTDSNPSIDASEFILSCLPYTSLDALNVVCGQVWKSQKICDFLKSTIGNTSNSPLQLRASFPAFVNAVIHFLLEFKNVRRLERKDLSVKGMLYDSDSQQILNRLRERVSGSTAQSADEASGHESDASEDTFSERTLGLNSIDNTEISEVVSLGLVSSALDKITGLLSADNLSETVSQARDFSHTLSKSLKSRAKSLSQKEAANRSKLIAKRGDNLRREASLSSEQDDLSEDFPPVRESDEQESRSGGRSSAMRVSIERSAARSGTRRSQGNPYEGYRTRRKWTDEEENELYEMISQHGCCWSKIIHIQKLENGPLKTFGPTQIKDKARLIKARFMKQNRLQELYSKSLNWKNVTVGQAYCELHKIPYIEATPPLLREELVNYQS

[2] = target: T2, Teb1p (6HN-Teb1) (Schizosaccharomyces pombe) (UniProt Q10274); test: EMSA; details: no DTT, EMSA: 15 nM DNA, 0.05-4.5 uM protein, room temperature 10 min, recombinant protein, residues 2-390
T2 sequence (looked up): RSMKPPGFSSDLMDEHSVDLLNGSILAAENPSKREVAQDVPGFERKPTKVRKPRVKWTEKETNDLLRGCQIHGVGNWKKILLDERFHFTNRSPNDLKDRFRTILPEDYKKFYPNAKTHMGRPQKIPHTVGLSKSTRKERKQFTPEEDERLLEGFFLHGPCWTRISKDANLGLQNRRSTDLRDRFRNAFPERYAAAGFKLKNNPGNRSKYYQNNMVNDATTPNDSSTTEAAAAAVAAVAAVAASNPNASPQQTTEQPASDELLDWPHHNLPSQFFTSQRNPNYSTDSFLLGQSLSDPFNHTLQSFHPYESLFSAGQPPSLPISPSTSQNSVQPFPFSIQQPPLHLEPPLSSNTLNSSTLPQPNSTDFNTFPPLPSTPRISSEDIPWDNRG

[3] = better than SpTEL, complex unstable, label: 5'-32P on strand A

Sequence	binding result ([1]; label: 5'-32P on strand A)	binding result ([2]; label: 5'-32P on strand A)	also measured
AGGGTGTGAGTTGTGAT (double strand) [HisBoxMut]	–	–	binding result ([1]; bound only at highest concentration, label: 5'-32P on strand A): binds more weakly
AGGGTTAGGGCCACAGC (double strand) [HisBoxFlank3']	binds more weakly	binds more weakly	–
AGGGTTAGGGTTGTGAT (double strand) [HisBox]	–	–	binding result [1]: binds more weakly
GAAATTAGGGCCACAGC (double strand) [HisBoxFlank]	binds more weakly	binds more weakly	–
GAAATTAGGGTTGTGAT (double strand) [HisBoxFlank5']	binds	binds more weakly	–
TTACAGGGGGTTACAGGG (double strand) [SpTEL]	–	–	binding result [2]: binds more weakly
TTACAGGGGGTTACGGGG (double strand) [SpTEL-M2]	–	–	binding result [2, 3]: binds more weakly
TTACAGGGGGTTAGAGGG (double strand) [SpTEL-M1]	–	–	binding result [2, 3]: binds more weakly
TTACAGGGGGTTAGGGGG (double strand) [SpTEL-M3]	–	binds	–

A weaker result is weaker than the reference pair of the same experiment. Tags and fusion partners may be left off the protein sequences shown. The exact form of at least one protein or probe is not confirmed. At least one verdict rests on a figure or table, not on a statement of the authors.
